In the supplement of paper PMC10849652:
Some of the results follow.

Sequences of proteins named here, by UniProt entry; tags and fusion partners are left off. A change or cut given only in a name is not applied to a line headed by its entry.
UniProt Q8IXV7: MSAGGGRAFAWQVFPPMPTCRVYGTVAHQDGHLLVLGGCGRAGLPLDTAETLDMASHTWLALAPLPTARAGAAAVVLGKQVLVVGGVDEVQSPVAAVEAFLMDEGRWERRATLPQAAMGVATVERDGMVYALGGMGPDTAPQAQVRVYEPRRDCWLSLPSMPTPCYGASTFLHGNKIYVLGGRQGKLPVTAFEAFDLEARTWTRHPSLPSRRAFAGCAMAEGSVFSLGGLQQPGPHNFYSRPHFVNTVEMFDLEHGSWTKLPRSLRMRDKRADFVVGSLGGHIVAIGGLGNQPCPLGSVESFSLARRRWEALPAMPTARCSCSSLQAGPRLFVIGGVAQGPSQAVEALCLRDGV
UniProt O00522: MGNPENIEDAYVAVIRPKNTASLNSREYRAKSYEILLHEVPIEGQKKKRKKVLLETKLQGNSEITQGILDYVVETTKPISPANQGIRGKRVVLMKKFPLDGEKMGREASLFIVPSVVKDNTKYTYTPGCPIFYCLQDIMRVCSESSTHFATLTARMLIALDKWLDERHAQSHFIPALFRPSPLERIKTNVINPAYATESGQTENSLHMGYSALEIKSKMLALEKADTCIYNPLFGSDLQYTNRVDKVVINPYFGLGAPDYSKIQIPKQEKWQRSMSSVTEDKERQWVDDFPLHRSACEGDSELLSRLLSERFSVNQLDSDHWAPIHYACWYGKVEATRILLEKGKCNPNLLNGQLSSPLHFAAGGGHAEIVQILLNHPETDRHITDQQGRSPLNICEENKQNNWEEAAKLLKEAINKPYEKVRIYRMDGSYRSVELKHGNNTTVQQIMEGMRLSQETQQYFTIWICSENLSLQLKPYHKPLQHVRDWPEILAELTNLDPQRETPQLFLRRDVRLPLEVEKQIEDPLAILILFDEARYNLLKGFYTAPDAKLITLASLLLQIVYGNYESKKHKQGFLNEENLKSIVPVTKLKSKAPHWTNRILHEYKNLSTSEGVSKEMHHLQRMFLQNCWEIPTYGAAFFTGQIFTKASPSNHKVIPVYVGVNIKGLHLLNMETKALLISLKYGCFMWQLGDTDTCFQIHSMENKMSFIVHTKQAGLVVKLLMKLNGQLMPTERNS
UniProt Q9Y496, whole entry, looked up: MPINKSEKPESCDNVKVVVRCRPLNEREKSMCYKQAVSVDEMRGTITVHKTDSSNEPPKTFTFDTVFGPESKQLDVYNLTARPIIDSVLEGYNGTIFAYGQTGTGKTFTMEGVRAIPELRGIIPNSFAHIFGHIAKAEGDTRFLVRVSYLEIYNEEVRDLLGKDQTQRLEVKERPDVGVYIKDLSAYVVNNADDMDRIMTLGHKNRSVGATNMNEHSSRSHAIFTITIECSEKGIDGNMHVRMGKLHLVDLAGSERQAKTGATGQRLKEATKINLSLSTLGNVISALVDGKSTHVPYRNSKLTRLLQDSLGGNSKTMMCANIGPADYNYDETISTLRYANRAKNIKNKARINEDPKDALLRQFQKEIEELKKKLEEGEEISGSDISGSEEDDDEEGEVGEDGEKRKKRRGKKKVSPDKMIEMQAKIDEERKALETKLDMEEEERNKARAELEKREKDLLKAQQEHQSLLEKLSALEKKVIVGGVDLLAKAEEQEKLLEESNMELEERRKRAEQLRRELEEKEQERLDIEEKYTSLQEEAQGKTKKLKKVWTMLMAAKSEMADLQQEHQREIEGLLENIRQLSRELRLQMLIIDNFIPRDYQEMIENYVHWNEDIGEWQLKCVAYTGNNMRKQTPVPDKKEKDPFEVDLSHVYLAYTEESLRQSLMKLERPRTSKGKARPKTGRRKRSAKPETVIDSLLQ
UniProt Q9NQT8: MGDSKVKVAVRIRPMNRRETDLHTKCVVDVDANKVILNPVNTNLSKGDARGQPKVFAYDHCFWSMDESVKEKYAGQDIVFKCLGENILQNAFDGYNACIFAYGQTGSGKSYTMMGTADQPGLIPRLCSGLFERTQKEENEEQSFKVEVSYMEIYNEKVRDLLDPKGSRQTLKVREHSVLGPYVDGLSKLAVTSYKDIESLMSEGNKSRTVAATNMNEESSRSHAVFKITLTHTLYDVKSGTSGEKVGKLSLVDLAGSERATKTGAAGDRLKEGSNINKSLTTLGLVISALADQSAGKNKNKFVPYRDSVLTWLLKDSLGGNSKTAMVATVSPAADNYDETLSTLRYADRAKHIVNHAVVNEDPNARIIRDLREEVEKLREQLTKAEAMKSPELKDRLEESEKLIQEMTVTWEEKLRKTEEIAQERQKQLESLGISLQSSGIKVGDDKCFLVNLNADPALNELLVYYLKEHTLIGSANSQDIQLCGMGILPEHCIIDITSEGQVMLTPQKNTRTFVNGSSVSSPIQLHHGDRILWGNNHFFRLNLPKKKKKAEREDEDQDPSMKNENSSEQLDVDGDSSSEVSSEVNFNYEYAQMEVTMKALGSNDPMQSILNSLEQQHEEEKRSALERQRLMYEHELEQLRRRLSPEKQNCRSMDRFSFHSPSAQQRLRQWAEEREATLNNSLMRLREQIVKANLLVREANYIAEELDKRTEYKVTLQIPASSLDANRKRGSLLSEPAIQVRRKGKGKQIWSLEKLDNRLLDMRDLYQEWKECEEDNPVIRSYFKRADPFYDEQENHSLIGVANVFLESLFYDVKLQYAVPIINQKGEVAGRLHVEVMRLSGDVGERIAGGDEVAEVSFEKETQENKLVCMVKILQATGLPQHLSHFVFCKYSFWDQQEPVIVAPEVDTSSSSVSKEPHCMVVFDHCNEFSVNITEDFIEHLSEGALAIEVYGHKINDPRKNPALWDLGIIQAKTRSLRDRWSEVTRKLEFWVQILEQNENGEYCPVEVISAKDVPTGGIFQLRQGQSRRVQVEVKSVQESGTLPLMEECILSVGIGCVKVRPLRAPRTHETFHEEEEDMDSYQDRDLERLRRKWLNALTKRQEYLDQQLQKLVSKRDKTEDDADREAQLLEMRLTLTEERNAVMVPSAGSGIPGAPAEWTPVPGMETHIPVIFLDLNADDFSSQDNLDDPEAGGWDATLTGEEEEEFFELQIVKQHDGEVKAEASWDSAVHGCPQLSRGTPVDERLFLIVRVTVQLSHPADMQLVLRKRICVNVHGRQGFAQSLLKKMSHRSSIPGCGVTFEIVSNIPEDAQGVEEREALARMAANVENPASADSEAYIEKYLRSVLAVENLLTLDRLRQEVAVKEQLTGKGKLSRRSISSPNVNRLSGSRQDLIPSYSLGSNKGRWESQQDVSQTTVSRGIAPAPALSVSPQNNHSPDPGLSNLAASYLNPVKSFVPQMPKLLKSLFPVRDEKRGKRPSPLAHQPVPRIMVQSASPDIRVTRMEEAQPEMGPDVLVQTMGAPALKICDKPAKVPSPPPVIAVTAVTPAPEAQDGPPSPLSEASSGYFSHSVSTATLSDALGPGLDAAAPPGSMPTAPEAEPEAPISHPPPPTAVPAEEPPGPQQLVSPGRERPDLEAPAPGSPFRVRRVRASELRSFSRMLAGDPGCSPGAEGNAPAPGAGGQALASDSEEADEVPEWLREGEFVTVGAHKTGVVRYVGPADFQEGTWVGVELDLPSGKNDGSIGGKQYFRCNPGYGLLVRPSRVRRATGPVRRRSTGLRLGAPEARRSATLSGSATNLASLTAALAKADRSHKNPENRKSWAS
UniProt O00505, whole entry, looked up: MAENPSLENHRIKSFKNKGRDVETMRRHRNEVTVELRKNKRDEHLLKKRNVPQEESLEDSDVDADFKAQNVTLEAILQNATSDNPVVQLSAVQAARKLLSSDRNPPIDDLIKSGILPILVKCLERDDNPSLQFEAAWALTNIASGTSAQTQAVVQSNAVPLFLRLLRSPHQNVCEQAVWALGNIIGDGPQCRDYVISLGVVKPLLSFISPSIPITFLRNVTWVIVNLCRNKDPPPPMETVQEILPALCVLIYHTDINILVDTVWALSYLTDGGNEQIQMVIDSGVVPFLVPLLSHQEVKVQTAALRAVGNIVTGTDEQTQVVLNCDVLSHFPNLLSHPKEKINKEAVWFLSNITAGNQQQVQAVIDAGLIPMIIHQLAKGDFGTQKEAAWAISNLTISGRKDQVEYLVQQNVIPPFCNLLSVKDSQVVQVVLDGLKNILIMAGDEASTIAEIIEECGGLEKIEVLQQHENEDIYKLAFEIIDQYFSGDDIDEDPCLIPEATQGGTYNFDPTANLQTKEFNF
UniProt Q8N6L1: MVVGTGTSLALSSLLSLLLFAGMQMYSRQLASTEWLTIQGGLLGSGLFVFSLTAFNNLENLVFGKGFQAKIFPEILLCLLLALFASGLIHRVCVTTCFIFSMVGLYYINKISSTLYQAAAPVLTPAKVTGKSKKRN
UniProt Q15058: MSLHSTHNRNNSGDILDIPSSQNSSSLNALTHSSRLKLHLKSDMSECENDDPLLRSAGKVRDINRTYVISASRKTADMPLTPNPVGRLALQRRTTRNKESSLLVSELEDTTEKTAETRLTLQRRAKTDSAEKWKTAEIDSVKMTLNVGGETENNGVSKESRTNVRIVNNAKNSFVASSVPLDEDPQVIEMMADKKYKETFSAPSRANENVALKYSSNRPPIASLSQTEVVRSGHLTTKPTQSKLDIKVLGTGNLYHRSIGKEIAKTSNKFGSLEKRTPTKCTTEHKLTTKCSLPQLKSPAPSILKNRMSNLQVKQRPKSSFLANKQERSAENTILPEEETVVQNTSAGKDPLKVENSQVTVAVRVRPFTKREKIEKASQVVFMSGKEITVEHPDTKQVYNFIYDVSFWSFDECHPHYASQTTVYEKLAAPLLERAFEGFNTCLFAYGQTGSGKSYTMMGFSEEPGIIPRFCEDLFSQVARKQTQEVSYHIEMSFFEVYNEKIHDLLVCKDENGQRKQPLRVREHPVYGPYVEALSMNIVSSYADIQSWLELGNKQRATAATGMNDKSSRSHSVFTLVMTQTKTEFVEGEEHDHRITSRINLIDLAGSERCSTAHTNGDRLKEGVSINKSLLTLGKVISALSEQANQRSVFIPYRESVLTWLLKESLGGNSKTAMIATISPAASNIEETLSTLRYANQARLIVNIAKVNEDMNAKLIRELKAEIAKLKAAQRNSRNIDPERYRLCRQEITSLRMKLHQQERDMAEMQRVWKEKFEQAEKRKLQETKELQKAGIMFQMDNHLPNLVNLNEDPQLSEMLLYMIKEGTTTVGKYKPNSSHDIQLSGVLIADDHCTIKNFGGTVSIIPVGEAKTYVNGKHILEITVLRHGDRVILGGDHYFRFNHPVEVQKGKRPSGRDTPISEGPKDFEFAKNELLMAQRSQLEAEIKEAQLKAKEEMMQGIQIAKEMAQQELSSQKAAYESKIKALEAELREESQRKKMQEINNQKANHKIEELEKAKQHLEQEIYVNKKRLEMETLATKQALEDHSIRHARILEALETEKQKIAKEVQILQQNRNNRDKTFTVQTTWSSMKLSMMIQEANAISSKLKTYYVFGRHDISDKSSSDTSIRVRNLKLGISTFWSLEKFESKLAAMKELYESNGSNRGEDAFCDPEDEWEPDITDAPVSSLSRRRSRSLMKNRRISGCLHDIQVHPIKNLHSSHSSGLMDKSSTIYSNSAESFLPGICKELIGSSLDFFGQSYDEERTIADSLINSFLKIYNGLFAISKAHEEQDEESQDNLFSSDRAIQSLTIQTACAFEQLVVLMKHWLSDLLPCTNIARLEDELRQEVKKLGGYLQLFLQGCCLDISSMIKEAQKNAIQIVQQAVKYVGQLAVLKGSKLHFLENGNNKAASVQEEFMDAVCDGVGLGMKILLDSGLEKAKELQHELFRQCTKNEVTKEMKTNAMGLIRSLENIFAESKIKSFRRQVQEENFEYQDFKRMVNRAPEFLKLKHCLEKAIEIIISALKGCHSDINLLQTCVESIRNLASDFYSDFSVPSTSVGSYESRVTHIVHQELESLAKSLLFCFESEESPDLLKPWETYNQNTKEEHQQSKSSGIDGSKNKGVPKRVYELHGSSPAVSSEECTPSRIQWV

Columns and labels:
Assay in all cases: log2 fold change, soluble protein after heating vs DMSO (PISA); higher = thermal stabilisation; K562 cells, 10 uM, 30 min; active = over 0.2 and 3.5 SD of the protein, either way, in both replicates (recomputed)
saracatinib = compound: CN1CCN(CCOc2cc(OC3CCOCC3)c3c(Nc4c(Cl)ccc5c4OCO5)ncnc3c2)CC1 [saracatinib]
How it was run: (§1)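 Thermal stability values are relative to control samples and come from duplicates. They are expressed as log2 fold changes. For measurement, K562 cells (2×10^6 cells/mL) received 10 μM compound for 30 min, and aliquots were heated for 3 min over 48°C-58°C, pooled, and extracted at 4°C in PBS with 0.5% NP-40. Soluble protein, the supernatant after 21,000xg for 90 min, was quantified by TMTpro 16plex LC-MS/MS with equalised channel sums.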

sotrastaurin = compound: CN1CCN(c2nc(C3=C(c4c[nH]c5ccccc45)C(=O)NC3=O)c3ccccc3n2)CC1 [sotrastaurin]
How it was run: as §1

alvocidib = compound: CN1CC[C@H](c2c(O)cc(O)c3c(=O)cc(-c4ccccc4Cl)oc23)[C@H](O)C1 [alvocidib]
How it was run: as §1

Tubastatin A = compound: CN1CCc2c(c3ccccc3n2Cc2ccc(C(=O)NO)cc2)C1 [Tubastatin A]
How it was run: as §1

[1] = compound: CNC(=O)C1=CC=CC=C1NC2=NC(=NC=C2Cl)NC3=C(C=C(C=C3)N4CCOCC4)OC
How it was run: as §1

defactinib = compound: CNC(=O)c1ccc(Nc2ncc(C(F)(F)F)c(NCc3nccnc3N(C)S(C)(=O)=O)n2)cc1 [defactinib]
How it was run: as §1

[2] = compound: CNc1nc(-c2ccc3c(N)n[nH]c3c2)cc(N2C[C@@H](C(=O)NC3CCCCC3)CC[C@H]2C)n1
How it was run: as §1

[3] = compound: COC(=O)[C@H](CCSC)NC(=O)C1=C(C=C(C=C1)NC[C@H](CS)N)C2=CC=CC=C2
How it was run: as §1

[4] = compound: COC1=CC=C(C=C1)CN2C=CC3=C2C=C(C=C3)C(=O)NO
How it was run: as §1

filanesib = compound: CON(C)C(=O)N1N=C(c2cc(F)ccc2F)S[C@@]1(CCCN)c1ccccc1 [filanesib]
How it was run: as §1

zotarolimus = compound: CO[C@H]1C[C@@H]2CC[C@@H](C)[C@@](O)(O2)C(=O)C(=O)N2CCCC[C@H]2C(=O)O[C@H]([C@H](C)C[C@@H]2CC[C@H](n3cnnn3)[C@H](OC)C2)CC(=O)[C@H](C)/C=C(\C)[C@@H](O)[C@@H](OC)C(=O)[C@H](C)C[C@H](C)/C=C/C=C/C=C/1C [zotarolimus]
How it was run: as §1

idasanutlin = compound: COc1cc(C(=O)O)ccc1NC(=O)[C@@H]1N[C@@H](CC(C)(C)C)[C@](C#N)(c2ccc(Cl)cc2F)[C@H]1c1cccc(Cl)c1F [idasanutlin]
How it was run: as §1

alisertib = compound: COc1cc(Nc2ncc3c(n2)-c2ccc(Cl)cc2C(c2c(F)cccc2OC)=NC3)ccc1C(=O)O [alisertib]
How it was run: as §1

[5] = compound: COc1cccc2cc(-c3nc([C@H]4CC[C@H](C(=O)O)CC4)n4ncnc(N)c34)[nH]c12
How it was run: as §1

pictilisib = compound: CS(=O)(=O)N1CCN(Cc2cc3nc(-c4cccc5[nH]ncc45)nc(N4CCOCC4)c3s2)CC1 [pictilisib]
How it was run: as §1

[6] = compound: COc1cc2nc(-c3cc(F)ccc3O)nc(N[C@@H]3CNC[C@H]3C(C)(C)O)c2cc1OC
How it was run: as §1

gefitinib = compound: COc1cc2ncnc(Nc3ccc(F)c(Cl)c3)c2cc1OCCCN1CCOCC1 [gefitinib]
How it was run: as §1

lapatinib = compound: CS(=O)(=O)CCNCc1ccc(-c2ccc3ncnc(Nc4ccc(OCc5cccc(F)c5)c(Cl)c4)c3c2)o1 [lapatinib]
How it was run: as §1

rucaparib = compound: CNCc1ccc(-c2[nH]c3cc(F)cc4c3c2CCNC4=O)cc1 [rucaparib]
How it was run: as §1

encorafenib = compound: COC(=O)N[C@@H](C)CNc1nccc(-c2cn(C(C)C)nc2-c2cc(Cl)cc(NS(C)(=O)=O)c2F)n1 [encorafenib]
How it was run: as §1

Measured: log2 fold change

KLHDC8B (UniProt Q8IXV7)
inactive: saracatinib 0.171 | sotrastaurin 0.06 | alvocidib -0.147 | Tubastatin A 0.042 | [1] -0.093 | defactinib 0.122 | [2] -0.057 | [3] 0.151 | [4] -0.097 | filanesib -0.07 | zotarolimus 0.032 | idasanutlin -0.096 | alisertib 0.055 | [5] -0.101 | pictilisib 0.236

KRIT1 (UniProt O00522)
inactive: saracatinib 0.071 | sotrastaurin -0.146 | alvocidib -0.067 | [1] -0.042 | defactinib -0.057 | [2] 0.129 | [3] -0.201 | filanesib 0.062 | zotarolimus 0.126 | [6] 0.237 | gefitinib 0.38 | lapatinib -0.032 | pictilisib 0.084

KIF3A (UniProt Q9Y496)
inactive: saracatinib -0.102 | sotrastaurin -0.073 | Tubastatin A -0.031 | [1] 0.085 | defactinib 0.013 | rucaparib 0.292 | [2] 0.037 | encorafenib 0.003 | [3] 0.005 | [4] 0.219 | filanesib -0.091 | zotarolimus -0.004 | idasanutlin 0.056 | alisertib -0.027 | [6] 0.137 | gefitinib -0.129 | [5] 0 | lapatinib -0.063 | pictilisib 0.146

KIAA0930 isoform 2 (UniProt Q6ICG6)
inactive: saracatinib -0.063 | sotrastaurin 0.087 | alvocidib 0.14 | [1] -0.024 | defactinib 0.055 | rucaparib 0.075 | [2] 0.086 | encorafenib 0.032 | [3] 0.2 | [4] -0.014 | filanesib 0.064 | zotarolimus -0.242 | alisertib 0.109 | [6] 0.01 | gefitinib -0.002 | [5] 0.019 | lapatinib 0.082

KIF13B (UniProt Q9NQT8)
inactive: saracatinib 0.119 | sotrastaurin 0.097 | alvocidib -0.064 | Tubastatin A 0.016 | [1] 0.17 | rucaparib 0.199 | [2] -0.151 | encorafenib 0.049 | [4] -0.09 | filanesib 0.009 | zotarolimus 0.017 | idasanutlin -0.077 | alisertib -0.156 | [6] -0.049 | [5] -0.139 | lapatinib 0.022 | pictilisib 0.072

Two records picked at random from the list so far, as already listed:
KLHDC8B (UniProt Q8IXV7)
inactive: saracatinib 0.171 | sotrastaurin 0.06 | alvocidib -0.147 | Tubastatin A 0.042 | [1] -0.093 | defactinib 0.122 | [2] -0.057 | [3] 0.151 | [4] -0.097 | filanesib -0.07 | zotarolimus 0.032 | idasanutlin -0.096 | alisertib 0.055 | [5] -0.101 | pictilisib 0.236

KIAA0930 isoform 2 (UniProt Q6ICG6)
inactive: saracatinib -0.063 | sotrastaurin 0.087 | alvocidib 0.14 | [1] -0.024 | defactinib 0.055 | rucaparib 0.075 | [2] 0.086 | encorafenib 0.032 | [3] 0.2 | [4] -0.014 | filanesib 0.064 | zotarolimus -0.242 | alisertib 0.109 | [6] 0.01 | gefitinib -0.002 | [5] 0.019 | lapatinib 0.082

(cont.)

KPNA3 (UniProt O00505)
inactive: saracatinib 0.003 | sotrastaurin -0.068 | alvocidib -0.122 | Tubastatin A 0.025 | [1] -0.011 | defactinib -0.051 | rucaparib -0.015 | [2] -0.138 | encorafenib 0.005 | [3] 0.041 | [4] 0.027 | filanesib -0.028 | zotarolimus 0.031 | idasanutlin 0.068 | alisertib 0.121 | [6] -0.099 | gefitinib 0.008 | [5] 0.005 | lapatinib 0.011 | pictilisib 0.007

KRTCAP2 isoform 2 (UniProt Q8N6L1)
inactive: saracatinib 0.109 | sotrastaurin -0.03 | alvocidib 0.019 | Tubastatin A 0.032 | [1] -0.035 | defactinib 0.119 | rucaparib -0.05 | [2] -0.047 | encorafenib 0.038 | [3] 0.089 | [4] -0.039 | filanesib -0.065 | zotarolimus 0 | idasanutlin -0.169 | alisertib -0.033 | gefitinib -0.007 | [5] 0.043 | pictilisib 0.112

KIF14 (UniProt Q15058)
inactive: saracatinib 0.038 | sotrastaurin 0.07 | alvocidib 0.32 | [1] -0.156 | defactinib 0.109 | rucaparib 0.522 | [2] 0.102 | encorafenib 0.209 | [3] 0.047 | [4] -0.048 | filanesib 0.076 | zotarolimus 0.17 | idasanutlin 0.219 | alisertib -0.022 | [6] -0.108 | [5] -0.285 | lapatinib -0.214

KPNA2 (UniProt P52292)
inactive: saracatinib -0.152 | sotrastaurin -0.077 | alvocidib 0.196 | Tubastatin A 0.108 | [1] -0.005 | defactinib 0.187 | rucaparib 0.338 | [2] 0.06 | encorafenib 0.196 | [3] -0.068 | [4] -0.008 | filanesib 0.434 | zotarolimus 0.028 | idasanutlin 0.314 | alisertib -0.139 | [6] -0.031 | gefitinib 0.003 | [5] -0.175 | lapatinib 0.11 | pictilisib 0.035
